Measured values: publication PMC11319772
These are yes or no findings as the source states them, for the method shown. In cells and extracts the contact can be indirect. Some binding calls cover weakened binding; strength is not graded here.

By UniProt entry, the sequences of proteins in these tests, tags left out.
UniProt P42227: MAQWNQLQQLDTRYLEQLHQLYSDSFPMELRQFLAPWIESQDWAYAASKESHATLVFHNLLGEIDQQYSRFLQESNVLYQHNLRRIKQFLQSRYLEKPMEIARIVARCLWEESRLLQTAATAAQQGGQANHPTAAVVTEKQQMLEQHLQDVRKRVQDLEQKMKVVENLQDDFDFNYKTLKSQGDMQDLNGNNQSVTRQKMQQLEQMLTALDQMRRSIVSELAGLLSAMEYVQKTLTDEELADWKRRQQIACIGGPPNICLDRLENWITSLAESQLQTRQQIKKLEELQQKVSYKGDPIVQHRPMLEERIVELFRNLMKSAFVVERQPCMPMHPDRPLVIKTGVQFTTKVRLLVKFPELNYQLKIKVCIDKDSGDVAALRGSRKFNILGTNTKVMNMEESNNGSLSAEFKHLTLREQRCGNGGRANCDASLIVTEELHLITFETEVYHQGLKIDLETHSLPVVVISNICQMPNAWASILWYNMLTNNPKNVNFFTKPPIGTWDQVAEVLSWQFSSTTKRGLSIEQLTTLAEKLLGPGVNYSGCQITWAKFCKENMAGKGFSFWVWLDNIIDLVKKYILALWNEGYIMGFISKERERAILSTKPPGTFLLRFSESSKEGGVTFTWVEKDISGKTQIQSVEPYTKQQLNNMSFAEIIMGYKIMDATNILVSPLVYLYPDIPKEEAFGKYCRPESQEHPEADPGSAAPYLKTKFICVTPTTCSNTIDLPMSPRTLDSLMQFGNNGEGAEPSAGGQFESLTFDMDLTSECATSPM

Target: T1, IRAK-M (mouse (endogenous in bone marrow neutrophils)) (UniProt Q8K4B2)
T1 sequence: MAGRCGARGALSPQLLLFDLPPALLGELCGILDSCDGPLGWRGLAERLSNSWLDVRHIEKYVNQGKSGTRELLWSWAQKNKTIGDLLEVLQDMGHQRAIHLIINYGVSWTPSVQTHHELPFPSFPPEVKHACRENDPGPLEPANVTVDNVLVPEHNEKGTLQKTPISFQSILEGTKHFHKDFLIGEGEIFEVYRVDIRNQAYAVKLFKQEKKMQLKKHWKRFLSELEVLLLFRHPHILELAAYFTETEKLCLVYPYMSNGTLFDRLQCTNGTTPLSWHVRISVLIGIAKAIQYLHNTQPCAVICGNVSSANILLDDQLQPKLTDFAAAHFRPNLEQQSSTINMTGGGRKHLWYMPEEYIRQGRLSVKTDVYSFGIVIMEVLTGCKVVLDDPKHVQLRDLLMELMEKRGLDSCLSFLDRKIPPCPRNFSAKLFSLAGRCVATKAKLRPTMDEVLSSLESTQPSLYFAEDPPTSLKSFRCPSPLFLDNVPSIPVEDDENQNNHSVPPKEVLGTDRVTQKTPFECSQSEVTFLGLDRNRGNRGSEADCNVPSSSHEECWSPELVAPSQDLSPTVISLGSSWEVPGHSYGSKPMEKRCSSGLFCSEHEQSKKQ
Assay: co-IP; whole-cell lysates of WT bone marrow neutrophils in Nonidet P40 lysis buffer; immunoprecipitation with 10 ug anti-IRAK-M antibody in 500 ul lysate, 4 °C overnight, Protein A/G beads; immunoblotting for STAT3 and STAT1

In the case of STAT3 (from UniProt P42227 1-770), the binding is reported as “binds”.
